Results deposited as PubChem BioAssay AID652272 (Drosophila RNAi Screening Center, 2013)
The deposit covers about 21,000 reagents; below is a random part of those that have a named target and a result. In the full data, 503 (2.4%) got an active call. 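Raw plate light values, not normalised; calls rest on replicate z-scores that were not deposited; hits include reporter decreases as well as increases.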 A plus sign joins genes that one reagent is predicted to hit. Not given: the amount of reagent, the time to read-out.

Screen: 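Genome-wide knock-down search for components of Hedgehog signalling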 (primary screen)
Cell system: Drosophila clone 8 (Cl8) cells
Reagents: long dsRNA against Drosophila genes
Read-out: 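Plate reader light from a firefly reporter under a ptc promoter fragment that responds to Hedgehog, with Renilla light as transfection reference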
Scale: firefly Hh reporter signal: higher = more ptc reporter light; Renilla reference signal: higher = more Renilla control light
Call rule: 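Hit when the z-score averaged over two replicates is under -2 or over +3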
Meaning of the calls: active = hit: reporter lowered or raised; inactive = not a hit

The first 2 entries, ahead of the listing:
{"Target gene": "CG1208 (GeneID 40727)", "dsRNA": "DRSC12190", "firefly Hh reporter signal, replicate 1": 81827, "firefly Hh reporter signal, replicate 2": 44193, "Renilla reference signal, replicate 1": 3996, "Renilla reference signal, replicate 2": 2180, "Call": "inactive"}
{"Target gene": "kek3 (GeneID 34912)", "dsRNA": "DRSC03553", "firefly Hh reporter signal, replicate 1": 1.25e5, "firefly Hh reporter signal, replicate 2": 6.51e5, "firefly Hh reporter signal, replicate 3": 67341, "Renilla reference signal, replicate 1": 2790, "Renilla reference signal, replicate 2": 36545, "Call": "inactive"}

Results, from the start:
{"Target gene": "CG1208 (GeneID 40727)", "dsRNA": "DRSC12190", "firefly Hh reporter signal, replicate 1": 81827, "firefly Hh reporter signal, replicate 2": 44193, "Renilla reference signal, replicate 1": 3996, "Renilla reference signal, replicate 2": 2180, "Call": "inactive"}
{"Target gene": "kek3 (GeneID 34912)", "dsRNA": "DRSC03553", "firefly Hh reporter signal, replicate 1": 1.25e5, "firefly Hh reporter signal, replicate 2": 6.51e5, "firefly Hh reporter signal, replicate 3": 67341, "Renilla reference signal, replicate 1": 2790, "Renilla reference signal, replicate 2": 36545, "Call": "inactive"}
{"Target gene": "CG15891 + CG15892", "dsRNA": "DRSC18095", "firefly Hh reporter signal, replicate 1": 1.74e5, "firefly Hh reporter signal, replicate 2": 98752, "Renilla reference signal, replicate 1": 3244, "Renilla reference signal, replicate 2": 1680, "Call": "inactive"}
{"Target gene": "CG15891 + CG15892", "dsRNA": "DRSC18096", "firefly Hh reporter signal, replicate 1": 85867, "firefly Hh reporter signal, replicate 2": 2.48e5, "Renilla reference signal, replicate 1": 2320, "Renilla reference signal, replicate 2": 8258, "Call": "inactive"}
{"Target gene": "CG7896 (GeneID 43552)", "dsRNA": "DRSC16335", "firefly Hh reporter signal, replicate 1": 95352, "firefly Hh reporter signal, replicate 2": 59576, "Renilla reference signal, replicate 1": 2250, "Renilla reference signal, replicate 2": 2012, "Call": "inactive"}
{"Target gene": "CG5850 (GeneID 34327)", "dsRNA": "DRSC02905", "firefly Hh reporter signal, replicate 1": 76779, "firefly Hh reporter signal, replicate 2": 45895, "Renilla reference signal, replicate 1": 3509, "Renilla reference signal, replicate 2": 2150, "Call": "inactive"}
{"Target gene": "CG15475 (GeneID 35319)", "dsRNA": "DRSC02486", "firefly Hh reporter signal, replicate 1": 83516, "firefly Hh reporter signal, replicate 2": 59104, "Renilla reference signal, replicate 1": 2057, "Renilla reference signal, replicate 2": 5296, "Call": "inactive"}
{"Target gene": "CG10185 (GeneID 41953)", "dsRNA": "DRSC14205", "firefly Hh reporter signal, replicate 1": 96945, "firefly Hh reporter signal, replicate 2": 95509, "Renilla reference signal, replicate 1": 2448, "Renilla reference signal, replicate 2": 7209, "Call": "inactive"}
{"Target gene": "dally (GeneID 39013)", "dsRNA": "DRSC08954", "firefly Hh reporter signal, replicate 1": 1.08e5, "firefly Hh reporter signal, replicate 2": 2.33e5, "Renilla reference signal, replicate 1": 2969, "Renilla reference signal, replicate 2": 9265, "Call": "inactive"}
{"Target gene": "dally (GeneID 39013)", "dsRNA": "DRSC11338", "firefly Hh reporter signal, replicate 1": 69842, "firefly Hh reporter signal, replicate 2": 58802, "Renilla reference signal, replicate 1": 2964, "Renilla reference signal, replicate 2": 2359, "Call": "inactive"}
{"Target gene": "PGS1 (GeneID 42254)", "dsRNA": "DRSC16304", "firefly Hh reporter signal, replicate 1": 7.82e5, "firefly Hh reporter signal, replicate 2": 1.34e5, "Renilla reference signal, replicate 1": 37828, "Renilla reference signal, replicate 2": 3708, "Call": "inactive"}
{"Target gene": "CG14354 (GeneID 43120)", "dsRNA": "DRSC14817", "firefly Hh reporter signal, replicate 1": 87290, "firefly Hh reporter signal, replicate 2": 4.66e5, "Renilla reference signal, replicate 1": 3897, "Renilla reference signal, replicate 2": 27808, "Call": "inactive"}
